Taken from: PubChem BioAssay AID504744 (Drosophila RNAi Screening Center, 2011)
The screen tested about 23,000 reagents; shown is a random part of those that have a named target and a result. In the full data, 98 (0.43%) are marked active. 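Only hit calls are given; the phospho-dAkt signals, z-scores and hit direction were not deposited.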 Names joined by + are all predicted targets of the reagent.

- Test: 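Find genes whose loss alters insulin-driven dAkt phosphorylation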 (primary screen)
- Cells: Drosophila Kc167 cells
- Reagents: long dsRNA against Drosophila genes, 250 ng dsRNA per well of a 384-well plate
- Duration: 3 days of knock-down, then overnight serum-free starvation before stimulation
- Treatment: bovine insulin at 387 nM for 10 minutes after 12 h without serum
- Measurement: 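Per-well phospho-dAkt level from an in-cell fluorescent antibody stain, divided by a DNA-dye signal; log2 residuals turned into z-scores that take cell number into account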
- Active means: 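Hit in the insulin screen when the two-replicate mean z-score is more extreme than plus or minus 2.5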

| Target gene | PubChem SID | outcome |
| --- | --- | --- |
| Akh (Adipokinetic hormone) | SID104187930 | inactive |
| Bhmt (Betaine-homocysteine S-methyltransferase) | SID104181871 | inactive |
| CG31091 | SID104195725 | inactive |
| Rim2 (Replication in mitochondria 2) | SID104179865 | inactive |
| Rim2 (Replication in mitochondria 2) | SID104180312 | inactive |
| Rim2 (Replication in mitochondria 2) | SID104202085 | inactive |
| CG1889 | SID104197987 | inactive |
| jar (jaguar) | SID104196766 | inactive |
| par-1 | SID104185584 | inactive |
| par-1 | SID104185890 | inactive |
| par-1 | SID104186408 | inactive |
| par-1 | SID104187452 | inactive |
| par-1 | SID104187453 | inactive |
| pst (pastrel) | SID104190795 | inactive |
| CG17672 | SID104189022 | inactive |
| CG17672 | SID104190070 | inactive |
| CG5555 | SID104195626 | inactive |
| Gs1l (GS1-like) | SID104180546 | inactive |
| LysD + LysC (retired record) | SID104188466 | inactive |
| LysD + LysC (retired record) | SID104202115 | inactive |
| mgl (Megalin) | SID104197592 | inactive |
| mgl (Megalin) | SID104197615 | inactive |
| mgl (Megalin) | SID104197651 | inactive |
| mgl (Megalin) | SID104197796 | inactive |
| CG14082 | SID104189878 | inactive |
| CG33648 | SID104181179 | inactive |
| CG4554 | SID104184265 | inactive |
| CG15237 | SID104184763 | inactive |
| Pop1 (POP1 ribonuclease P/MRP subunit) | SID104197531 | inactive |
| TwdlX (TweedleX) | SID104198943 | inactive |
| TfIIA-S (Transcription-factor-IIA-S) | SID104196675 | inactive |
| Vajk4 | SID104186381 | inactive |
| Vajk4 | SID104186795 | inactive |
| tant (tantalus) | SID104191193 | inactive |
| CG12869 | SID104186000 | inactive |
| OdsH (Ods-site homeobox) | SID104200055 | inactive |
| pdgy (pudgy) | SID104198856 | inactive |
| pdgy (pudgy) | SID104199133 | inactive |
| acs (arcus) | SID104187977 | inactive |
| ND-30 (NADH dehydrogenase (ubiquinone) 30 kDa subunit) | SID104188035 | inactive |
| CG32052 | SID104190758 | inactive |
| CG14416 | SID104198431 | inactive |
| CG33771 | SID104191510 | inactive |
| ZnT77C (Zinc transporter 77C) | SID104191558 | inactive |
| ZnT77C (Zinc transporter 77C) | SID104191559 | inactive |
| CG33500 | SID104188907 | inactive |
| Prosbeta1 (Proteasome beta1 subunit) | SID104186951 | active |
| CG17187 | SID104194973 | inactive |
| thoc6 | SID104190320 | inactive |
| CG7465 | SID104188384 | inactive |
| CG7465 | SID104201823 | inactive |
| CG4949 | SID104199718 | inactive |
| CCT5 (Chaperonin containing TCP1 subunit 5) | SID104187149 | inactive |
| Rcd2 (Reduction in Cnn dots 2) | SID104191548 | inactive |
| srl (spargel) | SID104192132 | inactive |
| CG4073 | SID104195334 | inactive |
| CG14223 | SID104199372 | inactive |
| CG12910 | SID104186017 | inactive |
| CG34462 | SID104190560 | inactive |
| CG9452 | SID104190867 | inactive |
| Ste:CG33238 + Ste:CG33241 + Ste:CG33236 + 11 more | SID104198796 | inactive |
| Ste:CG33238 + Ste:CG33241 + Ste:CG33236 + 11 more | SID104201052 | inactive |
| CG33630 | SID104194338 | inactive |
| CG10151 | SID104185766 | inactive |
| CG8773 | SID104196236 | inactive |
| Alp8 (Alkaline phosphatase 8) | SID104184145 | inactive |
| l(2)k10201 (lethal (2) k10201) | SID104186231 | inactive |
| l(2)k10201 (lethal (2) k10201) | SID104187432 | inactive |
| FASN1 (Fatty acid synthase 1) | SID104180060 | inactive |
| dpr13 (defective proboscis extension response 13) | SID104185952 | inactive |
| dpr13 (defective proboscis extension response 13) | SID104186256 | inactive |
| CG12551 (retired record) | SID104184649 | inactive |
| CG12551 (retired record) | SID104184656 | inactive |
| Tollo | SID104191097 | inactive |
| CG18324 | SID104186513 | inactive |
| dco (discs overgrown) | SID104196721 | inactive |
| spd-2 (spindle defective 2) | SID104189474 | inactive |
| RpL7 (Ribosomal protein L7) | SID104183209 | inactive |
| CG13928 | SID104188189 | inactive |
| CG3347 | SID104180389 | inactive |
| CG3309 | SID104198093 | inactive |
| Dis3l2 (Dis3 like 3'-5' exoribonuclease 2) | SID104188288 | inactive |
| CG32081 | SID104189653 | inactive |
| CG13314 | SID104189777 | inactive |
| Cpr65Ax2 + Cpr65Ax1 | SID104190133 | inactive |
| Cpr65Ax2 + Cpr65Ax1 | SID104190136 | inactive |
| CG15699 (retired record) | SID104186363 | inactive |
| CG34126 | SID104182518 | inactive |
| CG34126 | SID104201652 | inactive |
| CG6665 | SID104186798 | inactive |
| Rab32 | SID104184938 | inactive |
| Rab32 | SID104187314 | inactive |
| Hmx (H6-like-homeobox) | SID104195676 | inactive |
| Hmx (H6-like-homeobox) | SID104196498 | inactive |
| Hmx (H6-like-homeobox) | SID104202158 | inactive |
| ttm2 (tiny tim 2) | SID104188060 | inactive |
| CG31832 | SID104201643 | inactive |
| Ost48 (Oligosaccharyltransferase 48kD subunit) | SID104198485 | inactive |
| gbb (glass bottom boat) | SID104184479 | inactive |
| CG34292 | SID104193599 | inactive |
| CG6006 | SID104192929 | inactive |
| CG6006 | SID104195738 | inactive |
| rudhira | SID104199613 | inactive |
| rudhira | SID104201672 | inactive |
| Mhcl (Myosin heavy chain-like) | SID104192922 | inactive |
| Mhcl (Myosin heavy chain-like) | SID104194008 | inactive |
| Mhcl (Myosin heavy chain-like) | SID104196545 | inactive |
| CG12320 | SID104194290 | inactive |
| PGAP1 (Post-GPI attachment to proteins 1) | SID104198078 | inactive |
| CG1314 | SID104200287 | inactive |
| CG10510 | SID104191406 | inactive |
| AP-2sigma (Adaptor Protein complex 2, sigma subunit) | SID104195749 | inactive |
| Mcm2 (Minichromosome maintenance 2) | SID104196526 | inactive |
| CG18178 | SID104190094 | inactive |
| 14-3-3epsilon | SID104196162 | inactive |
| Muc68Ca (Mucin 68Ca) | SID104190104 | inactive |
| Muc68Ca (Mucin 68Ca) | SID104190105 | inactive |
| Acsf3 (Acyl-CoA synthetase family member 3) | SID104197938 | inactive |
| CG5466 | SID104195600 | inactive |
| CG1663 | SID104186405 | inactive |
| CG1663 | SID104201942 | inactive |
| CG14132 | SID104189928 | inactive |
| CG4218 | SID104181731 | inactive |
| up (upheld) | SID104200174 | inactive |
| CG31777 | SID104179993 | inactive |
| hpRNA:CR18854 + IP3K1 | SID104182010 | inactive |
| bmm (brummer) | SID104190294 | inactive |
| Cpr47Eg (Cuticular protein 47Eg) | SID104187122 | inactive |
| CG15764 | SID104197862 | inactive |
| toc (toucan) | SID104179961 | inactive |
| toc (toucan) | SID104179963 | inactive |
| toc (toucan) | SID104180634 | inactive |
| w-cup (world cup) | SID104182840 | inactive |
| CG12268 | SID104194283 | inactive |
| Ank (Ankyrin) | SID104196919 | inactive |
| pyd3 | SID104195251 | inactive |
| pyd3 | SID104201332 | inactive |
| Jhe (Juvenile hormone esterase) | SID104186966 | inactive |
| PIG-Wa (Phosphatidylinositol glycan anchor biosynthesis class W a) | SID104180520 | inactive |
| AstA-R1 (Allatostatin A receptor 1) | SID104197070 | inactive |
| AstA-R1 (Allatostatin A receptor 1) | SID104197519 | inactive |
| CG8012 | SID104190743 | inactive |
| CG7785 | SID104196103 | inactive |
| CG42724 | SID104192359 | inactive |
| CG42724 | SID104201795 | inactive |
| CG6621 | SID104195868 | inactive |
| RSG7 (Regulator of G-protein signaling 7) | SID104200066 | inactive |
| RSG7 (Regulator of G-protein signaling 7) | SID104202211 | inactive |
| CG33270 | SID104190376 | inactive |
| CG7384 | SID104182845 | inactive |
| GAA1 (Glycosylphosphatidylinositol anchor attachment 1) | SID104198059 | inactive |
| CG10357 | SID104187947 | inactive |
| CG15563 | SID104194893 | inactive |
| lqf (liquid facets) | SID104191155 | inactive |
| mRpS5 (mitochondrial ribosomal protein S5) | SID104201147 | inactive |
| CG18128 | SID104184096 | inactive |
| Kdm5 (Lysine demethylase 5) | SID104182925 | inactive |
| CG34269 | SID104187676 | inactive |
| CG13083 | SID104181979 | inactive |
| Tao | SID104199365 | inactive |
| Tao | SID104199366 | inactive |
| Tao | SID104202045 | inactive |
| CG15048 (retired record) | SID104199416 | inactive |
| CG10175 | SID104193420 | inactive |
| CG10175 | SID104193992 | inactive |
| CG10175 | SID104201586 | inactive |
| Cyp49a1 (Cytochrome P450 49a1) | SID104186529 | inactive |
| Cyp49a1 (Cytochrome P450 49a1) | SID104187159 | inactive |
| CG14817 | SID104198339 | inactive |
| CG10339 | SID104183857 | inactive |
| LSm3 (Like Sm 3) | SID104195712 | inactive |
| Ork1 (Open rectifier K[+] channel 1) | SID104200058 | inactive |
| CG4880 | SID104199715 | inactive |
| CG14631 | SID104197584 | inactive |
| CG14631 | SID104197733 | inactive |
| Elp1 (Elongator complex protein 1) | SID104194042 | inactive |
| CG6761 | SID104190497 | inactive |
| hbn (homeobrain) | SID104183874 | inactive |
| hbn (homeobrain) | SID104184030 | inactive |
| hbn (homeobrain) | SID104184031 | inactive |
| hbn (homeobrain) | SID104201907 | inactive |
| Ide (Insulin degrading metalloproteinase) | SID104191659 | inactive |
| Prp5 (pre-mRNA processing factor 5) | SID104199767 | inactive |
| CG14312 | SID104194583 | inactive |
| CG17328 | SID104181719 | inactive |
| CG17328 | SID104201915 | inactive |
| Mpv17 (Mitochondrial inner membrane protein MPV17) | SID104196990 | inactive |
| CRIF (CR6-interacting factor) | SID104191603 | inactive |
| KCNQ (KCNQ potassium channel) | SID104185913 | inactive |
| KCNQ (KCNQ potassium channel) | SID104186022 | inactive |
| DCX-EMAP | SID104189804 | inactive |
| DCX-EMAP | SID104189805 | inactive |
| csw (corkscrew) | SID104198548 | inactive |
| NELF-B | SID104197526 | inactive |
| mge (maggie) | SID104188513 | inactive |
| CG12744 | SID104185956 | inactive |
| mmy (mummy) | SID104181794 | inactive |
| Slmap (Sarcolemma associated protein) | SID104183591 | inactive |
| scat (scattered) | SID104182514 | inactive |
| CG3511 | SID104184174 | inactive |

Laid out differently: results already given.
{"Target gene": "CG10175", "PubChem SID": "SID104193992", "outcome": "inactive"}
{"Target gene": "CG10175", "PubChem SID": "SID104201586", "outcome": "inactive"}
{"Target gene": "Cyp49a1 (Cytochrome P450 49a1)", "PubChem SID": "SID104186529", "outcome": "inactive"}
{"Target gene": "Cyp49a1 (Cytochrome P450 49a1)", "PubChem SID": "SID104187159", "outcome": "inactive"}
{"Target gene": "CG14817", "PubChem SID": "SID104198339", "outcome": "inactive"}
{"Target gene": "CG10339", "PubChem SID": "SID104183857", "outcome": "inactive"}
{"Target gene": "LSm3 (Like Sm 3)", "PubChem SID": "SID104195712", "outcome": "inactive"}
{"Target gene": "Ork1 (Open rectifier K[+] channel 1)", "PubChem SID": "SID104200058", "outcome": "inactive"}
{"Target gene": "CG4880", "PubChem SID": "SID104199715", "outcome": "inactive"}
{"Target gene": "CG14631", "PubChem SID": "SID104197584", "outcome": "inactive"}
{"Target gene": "CG14631", "PubChem SID": "SID104197733", "outcome": "inactive"}
{"Target gene": "Elp1 (Elongator complex protein 1)", "PubChem SID": "SID104194042", "outcome": "inactive"}
{"Target gene": "CG6761", "PubChem SID": "SID104190497", "outcome": "inactive"}
{"Target gene": "hbn (homeobrain)", "PubChem SID": "SID104183874", "outcome": "inactive"}
{"Target gene": "hbn (homeobrain)", "PubChem SID": "SID104184030", "outcome": "inactive"}
{"Target gene": "hbn (homeobrain)", "PubChem SID": "SID104184031", "outcome": "inactive"}
{"Target gene": "hbn (homeobrain)", "PubChem SID": "SID104201907", "outcome": "inactive"}
{"Target gene": "Ide (Insulin degrading metalloproteinase)", "PubChem SID": "SID104191659", "outcome": "inactive"}
{"Target gene": "Prp5 (pre-mRNA processing factor 5)", "PubChem SID": "SID104199767", "outcome": "inactive"}
{"Target gene": "CG14312", "PubChem SID": "SID104194583", "outcome": "inactive"}
{"Target gene": "CG17328", "PubChem SID": "SID104181719", "outcome": "inactive"}
